Assay results as given in paper PMC7473641, “The C-terminal helix of BubR1 is essential for CENP-E-dependent chromosome alignment” (Journal of Cell Science, 2020).

Sequences of proteins named here, by UniProt entry; tags and fusion partners are left off. Residues count along the entry.
UniProt Q02224, residues 2055-2358: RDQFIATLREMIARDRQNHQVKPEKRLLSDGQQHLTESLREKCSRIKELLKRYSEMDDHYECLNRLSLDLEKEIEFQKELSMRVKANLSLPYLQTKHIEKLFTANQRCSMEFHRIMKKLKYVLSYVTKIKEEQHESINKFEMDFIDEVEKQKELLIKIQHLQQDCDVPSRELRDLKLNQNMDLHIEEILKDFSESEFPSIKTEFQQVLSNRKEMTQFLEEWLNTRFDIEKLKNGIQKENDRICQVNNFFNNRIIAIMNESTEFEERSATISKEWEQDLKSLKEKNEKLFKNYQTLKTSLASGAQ
UniProt O60566: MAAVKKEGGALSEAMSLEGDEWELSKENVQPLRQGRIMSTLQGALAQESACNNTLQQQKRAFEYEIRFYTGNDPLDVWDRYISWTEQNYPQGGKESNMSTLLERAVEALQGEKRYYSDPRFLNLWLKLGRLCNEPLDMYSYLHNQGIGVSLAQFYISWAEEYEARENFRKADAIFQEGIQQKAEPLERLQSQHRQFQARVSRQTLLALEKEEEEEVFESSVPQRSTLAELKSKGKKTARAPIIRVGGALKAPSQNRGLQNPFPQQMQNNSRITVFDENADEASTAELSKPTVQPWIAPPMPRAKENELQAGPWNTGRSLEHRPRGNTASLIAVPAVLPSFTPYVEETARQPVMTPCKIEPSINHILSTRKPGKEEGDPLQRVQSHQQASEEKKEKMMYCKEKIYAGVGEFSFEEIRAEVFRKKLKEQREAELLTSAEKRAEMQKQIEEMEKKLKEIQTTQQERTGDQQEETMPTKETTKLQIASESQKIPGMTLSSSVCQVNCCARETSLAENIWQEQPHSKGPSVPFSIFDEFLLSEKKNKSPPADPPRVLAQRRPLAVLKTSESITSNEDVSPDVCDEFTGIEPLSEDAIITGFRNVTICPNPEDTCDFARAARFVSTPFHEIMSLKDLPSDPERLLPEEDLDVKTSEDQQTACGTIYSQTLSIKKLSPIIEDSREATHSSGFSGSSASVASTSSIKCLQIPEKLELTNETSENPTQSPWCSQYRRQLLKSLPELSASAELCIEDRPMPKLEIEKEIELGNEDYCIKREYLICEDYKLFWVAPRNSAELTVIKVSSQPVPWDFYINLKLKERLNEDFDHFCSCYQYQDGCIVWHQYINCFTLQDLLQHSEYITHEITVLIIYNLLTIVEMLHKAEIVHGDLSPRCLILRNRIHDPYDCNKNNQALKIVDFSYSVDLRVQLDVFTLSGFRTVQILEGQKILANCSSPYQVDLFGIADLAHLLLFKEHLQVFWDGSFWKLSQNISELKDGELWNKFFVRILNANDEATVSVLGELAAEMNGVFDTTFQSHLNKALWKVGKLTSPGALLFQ

Target: CENP-E_(2055–2358)–3C cleavage site–6×His bound to Ni-NTA beads (human) (UniProt Q02224)
Assay: affinity purification with mass spectrometry; 600 µg CENP-E 2055-2358-3C-6xHis on Ni-NTA agarose beads, incubated 1 h at 4°C with cleared mitotic HeLa lysate (nocodazole 14 h); eluted with 3C protease; LC-MS/MS; beads alone as control; only the target purified

binding: binds
Substance: BubR1 (BUB1B), endogenous (from UniProt O60566 1-1050)

Results are given in words; binding and its absence hold for the method and conditions named. In cells and extracts the contact can be indirect. These calls come from enrichment with a bait or labelling near it, and not all partners need be listed.
